Assay results published in patent US20110229560A1.
These are yes or no findings as the source states them, for the method shown. For part of these data: Binding seen in cells or lysates may run through a third protein. Some entries that bind do so weakly or less than the wild type. Tags and fused reporters may be left off the sequences shown.

Assays:
[1] = biological target: T1, Flag-tagged IKKβ (full length) (UniProt O14920); assay: immunoprecipitation and Western blot, transfected 293T cells
T1 sequence (looked up): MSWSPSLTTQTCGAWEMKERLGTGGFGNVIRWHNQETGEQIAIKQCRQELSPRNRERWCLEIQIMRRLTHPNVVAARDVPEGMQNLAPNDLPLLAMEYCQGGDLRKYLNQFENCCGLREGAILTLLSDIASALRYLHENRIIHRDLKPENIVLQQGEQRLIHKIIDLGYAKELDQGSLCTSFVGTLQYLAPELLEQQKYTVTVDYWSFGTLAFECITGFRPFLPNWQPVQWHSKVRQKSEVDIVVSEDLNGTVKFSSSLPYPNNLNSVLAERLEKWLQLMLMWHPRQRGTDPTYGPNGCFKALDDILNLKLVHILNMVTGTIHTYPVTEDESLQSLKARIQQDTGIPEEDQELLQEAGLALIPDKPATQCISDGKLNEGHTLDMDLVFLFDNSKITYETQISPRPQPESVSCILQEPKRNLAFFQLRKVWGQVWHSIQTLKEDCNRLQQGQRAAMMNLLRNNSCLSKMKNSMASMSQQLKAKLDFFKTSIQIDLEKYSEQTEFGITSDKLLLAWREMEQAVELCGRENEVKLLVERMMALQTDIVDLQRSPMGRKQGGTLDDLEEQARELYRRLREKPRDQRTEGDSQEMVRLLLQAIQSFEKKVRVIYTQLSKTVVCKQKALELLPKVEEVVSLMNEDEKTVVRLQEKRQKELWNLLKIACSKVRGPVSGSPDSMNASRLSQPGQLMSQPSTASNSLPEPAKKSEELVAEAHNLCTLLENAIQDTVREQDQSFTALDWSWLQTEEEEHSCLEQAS

[2] = biological target: T2, IKKβ-KD (amino-terminal kinase domain construct of IKKβ, Flag-tagged) (UniProt O14920); assay: as above
T2 sequence (looked up): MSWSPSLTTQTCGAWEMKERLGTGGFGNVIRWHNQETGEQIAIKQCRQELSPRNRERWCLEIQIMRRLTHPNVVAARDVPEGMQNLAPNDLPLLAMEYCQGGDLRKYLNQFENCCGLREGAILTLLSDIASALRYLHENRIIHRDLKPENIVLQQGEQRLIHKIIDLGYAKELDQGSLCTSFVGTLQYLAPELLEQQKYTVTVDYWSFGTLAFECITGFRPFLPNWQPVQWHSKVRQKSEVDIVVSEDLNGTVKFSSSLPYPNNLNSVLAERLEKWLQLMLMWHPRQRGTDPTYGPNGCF

[3] = biological target: T2, IKKβ-KD (amino-terminal kinase domain construct of IKKβ, Flag-tagged); assay: restatement of the deletion co-IP results

Measured: binding

B1: NLRC5-D1, containing the CARD and NOD domains (aa 1-517) (protein, not shown: small tags and cut ends)
chain: MDPVGLQLGNKNLWSCLVRLLTKDPEWLNAKMKFFLPNTDLDSRNETLDPEQRVILQLNKLHVQGSDTWQSFIHCVCMQLEVPLDLEVLLLSTFGYDDGFTSQLGAEGKSQPESQLHHGLKRPHQSCGSSPRRKQCKKQQLELAKKYLQLLRTSAQQRYRSQIPGSGQPHAFHQVYVPPILRRATASLDTPEGAIMGDVKVEDGADVSISDLFNTRVNKGPRVTVLLGKAGMGKTTLAHRLCQKWAEGHLNCFQALFLFEFRQLNLITRFLTPSELLFDLYLSPESDHDTVFQYLEKNADQVLLIFDGLDEALQPMGPDGPGPVLTLFSHLCNGTLLPGCRVMATSRPGKLPACLPAEAAMVHMLGFDGPRVEEYVNHFFSAQPSREGALVELQTNGRLRSLCAVPALCQVACLCLHHLLPDHAPGQSVALLPNMTQLYMQMVLALSPPGHLPTSSLLDLGEVALRGLETGKVIFYAKDIAPPLIAFGATHSLLTSFCVCTGPGHQQTGYAFTHLSL
binds: all assays above

B2: NLRC5-D2, containing the LRR-R1 (aa 651-898) (protein, not shown: small tags and cut ends)
chain: LATLTNILEHREAPIHLDFDGCPLEPHCPEALVGCGQIENLSFKSRKCGDAFAEALSRSLPTMGRLQMLGLAGSKITARGISHLVKALPLCPQLKEVSFRDNQLSDQVVLNIVEVLPHLPRLRKLDLSSNSICVSTLLCLARVAVTCPTVRMLQAREADLIFLLSPPTETTAELQRAPDLQESDGQRKGAQSRSLTLRLQKCQLQVHDAEALIALLQEGPHLEEVDLSGNQLEDEGCRLMAEAASQLH
binds: all assays above

B3: NLRC5-D3, containing the link region and LRR-R2 (aa 900-1329) (protein, not shown: small tags and cut ends)
chain: ARKLDLSDNGLSVAGVHCVLRAVSACWTLAELHISLQHKTVIFMFAQEPEEQKGPQERAAFLDSLMLQMPSELPLSSRRMRLTHCGLQEKHLEQLCKALGGSCHLGHLHLDFSGNALGDEGAARLAQLLPGLGALQSLNLSENGLSLDAVLGLVRCFSTLQWLFRLDISFESQHILLRGDKTSRDMWATGSLPDFPAAAKFLGFRQRCIPRSLCLSECPLEPPSLTRLCATLKDCPGPLELQLSCEFLSDQSLETLLDCLPQLPQLSLLQLSQTGLSPKSPFLLANTLSLCPRVKKVDLRSLHHATLHFRSNEEEEGVCCGRFTGCSLSQEHVESLCWLLSKCKDLSQVDLSANLLGDSGLRCLLECLPQVPISGLLDLSHNSISQESALYLLETLPSCPRVREASVNLGSEQSFRIHFSREDQAGKTLR
binds: all assays above

B4: NLRC5-D4, containing the CARD domain and LRR-R3 (aa 1-215 plus 1471-1866) (protein, not shown: small tags and cut ends)
chain: MDPVGLQLGNKNLWSCLVRLLTKDPEWLNAKMKFFLPNTDLDSRNETLDPEQRVILQLNKLHVQGSDTWQSFIHCVCMQLEVPLDLEVLLLSTFGYDDGFTSQLGAEGKSQPESQLHHGLKRPHQSCGSSPRRKQCKKQQLELAKKYLQLLRTSAQQRYRSQIPGSGQPHAFHQVYVPPILRRATASLDTPEGAIMGDVKVEDGADVSISDLFNTSQVNLCEDDDASSLLLQSLLLSLSELKTFRLTSSCVSTEGLAHLASGLGHCHHLEELDLSNNQFDEEGTKALMRALEGKWMLKRLDLSHLLLNSSTLALLTHRLSQMTCLQSLRLNRNSIGDVGCCHLSEALRAATSLEELDLSHNQIGDAGVQHLATILPGLPELRKIDLSGNSISSAGGVQLAESLVLCRRLEELMLGCNALGDPTALGLAQELPQHLRVLHLPFSHLGPGGALSLAQALDGSPHLEEISLAENNLAGGVLRFCMELPLLRQIDLVSCKIDNQTAKLLTSSFTSCPALEVILLSWNLLGDEAAAELAQVLPQMGRLKRVDLEKNQITALGAWLLAEGLAQGSSIQVIRLWNNPIPCDMAQHLKSQEPRLDFAFFDNQPQAPWGT
binds: all assays above
